Values are the deposited “Percent Effect”, in %. The record does not define 0% and 100%; most values in the screen are far below 50% and negative numbers occur (in some assays of this library far below -100). This is an unselected part of the compounds tested. Two or more numbers in one place are separate tests of the same structure; such repeats can differ widely.

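Whole-cell growth test on Mycobacterium tuberculosis, read after 4 days in a medium based on cholesterol and the lipid DPPC; the read-out is not stated. Compounds at 50 µM. Higher reads as more growth inhibition (inferred: compounds with an IC50 in retests scored well above the rest). About 69,000 compounds were tested under these conditions; 0.54% (about 370) showed 50% or more at least once.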

Compound | percent effect
CS(=O)(=O)NCCC(=O)Nc1cnn(-c2ccccc2Cl)c1 | -1.619%
COc1ccc(CN(Cc2cncn2C)CC2CCCO2)cc1OC.O=C(O)CC(O)(CC(=O)O)C(=O)O (stereo unspecified) | -3.809%
CN1CCN(Cc2cnc3n2CCN(C(=O)c2ccoc2)C3)CC1 | -12.57%
CN(CC1CC1)c1ccc2ccc(C(=O)NCCc3ccccc3)cn12 | 5.203% & 5.407%
CC(C)C(NC(=O)c1ccc(Cl)cc1Cl)C(=O)Nc1ccn(C)n1 (stereo unspecified) | -6.893%
COc1ncc(C2(O)CCN(Cc3cccs3)CC2)c(OC)n1.Cl | -2.204%
[H][C@]12CN(c3ccccn3)CCN1C[C@H](CO)[C@H]2c1ccccc1 | -6.878%
O=C(CSCc1ccccn1)N(Cc1ccsc1)C1CC1 | -4.411%
O=c1[nH]ncc(NCCOc2ccc3c(c2)CCC3)c1Cl | 17.67%
Cc1ccc(CN2CCC3(CCN(c4cnn(C)c4)C3=O)C2)s1.O=C(O)C(F)(F)F (stereo unspecified) | -1.814%
CC(=O)N1CCc2cc(C(=O)O)c(-c3ccsc3)nc2CC1.O=C(O)C(F)(F)F | -1.83%
COCC(=O)N1CCC(Oc2cccc(C)c2)CC1 | 14.73%
O=C(O)c1ccc(N2CCC(Cc3ccccc3)CC2)nn1 | -21.41%
Cc1noc(C)c1-c1cccc(CC2CCN(C(=O)c3cscn3)C2)n1 (stereo unspecified) | 2.079%
COc1cc2c(cc1OC)C(=O)C(Sc1nnc(C)o1)C2 (stereo unspecified) | 6.044%
CCOc1ccc(C2C3=C(O)OCC3=Nc3nc(SC)nc(N)c32)cc1 (stereo unspecified) | -8.697%
Cn1ncc2c(N3CCC(F)(F)CC3)nc(-c3ccncc3)nc21 | -32.82%
COc1ccc(CCNc2cc(-c3nc(C)no3)ccn2)cc1OC | -2.024%
CC(=O)N1CCCC2(CN(Cc3ccc(C)s3)CCO2)C1.O=C(O)C(F)(F)F (stereo unspecified) | -2.986%
CC(C)Cc1nc(C[S+]([O-])CC(=O)NCc2ccccc2)no1 (stereo unspecified) | 17.91%
Cc1cc(C)nc(C2CCCN2C(=O)c2cnco2)n1 (stereo unspecified) | -5.003%
CC(C)n1nc(CN2CCCCC2)c2c1CN(C(=O)c1ccno1)C2.O=C(O)C(F)(F)F | -19.26%
CN1CC(=O)N(c2cccc(F)c2)CC12CCN(CCO)C2.O=C(O)C(F)(F)F.O=C(O)C(F)(F)F (stereo unspecified) | -23.74%
CC(Oc1ccc(S(C)(=O)=O)cc1)C(=O)NC(N)=O (stereo unspecified) | -46.76%
Cn1nnc2c1C(COCC1CC1)CN(C(=O)[C@H]1CCCO1)C2 (stereo partly specified) | -12.31%
CCCn1cc(S(=O)(=O)N[C@H]2CN(CC(N)=O)C[C@@H]2C2CC2)cn1 | -12.98%
Cc1cnn(CC(C)NCc2nc(-c3ccccn3)no2)c1 (stereo unspecified) | 2.265%
c1ccc(OCCCn2ccnc2-c2cn(C3CCNCC3)nn2)cc1 | 5.242%
Cc1cnn(CCNCc2ccc(OCC(N)=O)cc2)c1 | 1.69%
Cc1nc2oc(C(=O)N3CCCC3)c(N)c2c2c1CCCC2 | 1.302%
Cc1n[nH]c(C)c1-c1nccnc1CC1CCN(S(C)(=O)=O)C1 (stereo unspecified) | -6.842%
Cc1nnc2n1CC(CNc1cnc3ccccc3n1)CC2 (stereo unspecified) | -5.051%
O=C(CN1CCN(CCO)CC1)NCc1ccc(Cl)s1 | -16.04%
Cc1cc(C)c2c(NCc3nncn3C3CCCCC3)ncnc2n1 | -14.45%
O=C(O)C(F)(F)F.O=C(O)C(F)(F)F.[H][C@@]12CN(Cc3csc(C)n3)C[C@H](C(=O)NCCOC)[C@]1([H])CCO2 | 2.021%
Fc1ccccc1CN1CCCN(c2ccc3cc[nH]c3n2)CC1 | 9.502%
c1ccc(Cc2noc(CN3CCOC(Cn4cncn4)C3)n2)cc1 (stereo unspecified) | -20.12%
N#Cc1c(SCCN2CCCCC2)sc2c(O)cc(O)nc12 | -17.56%
Cc1cc(C)nc(C2CCCN2c2ccnc(C)n2)n1 (stereo unspecified) | -33.03%
CCC(=O)N1CCN(c2nc(C)nc3c(C)nn(C)c23)CC1 | -3.996%
Cn1cc(C2CCCN2Cc2csc(-c3ccsc3)n2)cn1 (stereo unspecified) | 7.767%
COCc1cn(CC2CCN(Cc3cc(C)[nH]n3)CC2)nn1 | -7.859%
Cn1ncc2c(NC3CCC3)nc(-c3ccncc3)nc21 | -2.477%
CCc1nc(CCn2cc(-c3nccn3C)nn2)no1 | 14.28%
COCCOc1ccccc1C(=O)N1CCCC(c2cc(C)[nH]n2)C1 (stereo unspecified) | -18.35%
CN(CCc1ccccn1)S(=O)(=O)N1CCCC1c1ccco1 (stereo unspecified) | -22.42%

For reference, 5 entries once more:

Result for Cc1ccc(CN2CCC3(CCN(c4cnn(C)c4)C3=O)C2)s1.O=C(O)C(F)(F)F (stereo unspecified) was -1.814%.
Result for c1ccc(Cc2noc(CN3CCOC(Cn4cncn4)C3)n2)cc1 (stereo unspecified) was -20.12%.
Result for CS(=O)(=O)NCCC(=O)Nc1cnn(-c2ccccc2Cl)c1 was -1.619%.
Result for Fc1ccccc1CN1CCCN(c2ccc3cc[nH]c3n2)CC1 was 9.502%.
Result for CCC(=O)N1CCN(c2nc(C)nc3c(C)nn(C)c23)CC1 was -3.996%.

Source: ChEMBL document CHEMBL3988442, “University of Dundee, Small-Polar-MMV Screening Library” (2021).